From article PMC12548414
In all, about 1,600 compounds went through this assay and about 20 (1%) showed an effect of 50% or more. This is one part of the list.

Test system: T1, E. coli pLC1021 (luc-trpAt trans-translation reporter)
T1 construct: pLC1021 luc-trpAt reporter strain
Design: species or system Escherichia coli pLC1021; luc-trpAt non-stop luciferase reporter; luminescence rises when trans-translation is inhibited; normalized to KKL-35 and DMSO
Settings: reporter signal, KKL-35 = 100%; rise means trans-translation inhibition; 2 h, 20 µM
Protocol: The luciferase screen was performed as previously described ([16]). […] 48 µL of cells was transferred to white 96-well plates, and 2 µL DMSO or 20 µM compound, or 20 µM KKL-35 was added. Plates were sealed with adhesive film, vortexed gently to mix, and incubated at room temperature for 2 h. 50 µL Bright-Glo reagent (Promega, Madison, WI) was added to each well, and the plates were sealed with adhesive film, vortexed vigorously, and incubated for an additional 10 min at room temperature. Luminescence was measured at 560 nm using a SpectraMax i3 microplate reader and readings for each plate were normalized to the average of three KKL-35-treated wells (positive control) and three DMSO-treated wells (negative control) within the plate to correct for plate-to-plate and day-to-day variations. Results from at least two biological repeats were averaged, and GraphPad Prism was used to plot the data. We screened a library of 1,601 anti-tubercular small molecules for their ability to inhibit trans-translation using a luciferase reporter in Escherichia coli. In this luc-trpAt reporter, the firefly luciferase gene has a trpA transcriptional terminator before the stop codon, such that luciferase is translated from a non-stop mRNA ([16]). When trans-translation is active, the luciferase will be tagged and degraded, but when trans-translation is inhibited, active luciferase will accumulate, resulting in a luminescent signal when luciferin is added. Luciferase activity was measured after growth in the presence of compounds from the library at 20 µM, using the known trans-translation inhibitor KKL-35 as a positive control (Fig. 1A) ([16], [17]). Compounds with activity one standard deviation above the median were scored as positive (Fig. S1 and Table S1).

Compound | % activation [%]
OC(CN1CCC(O)(c2ccc(C(F)(F)F)cc2)CC1)c1ccc(Cl)cc1 (stereo not drawn) [KKL-1042] | 9
COc1ccc(CN2CCC(c3cc4nc(C)cc(C(F)(F)F)n4n3)C2)c(OC)c1 (stereo not drawn) [KKL-0537] | 0
Cc1ccc(C(C)C)c(OCCCCn2ccnc2)c1 [KKL-1083] | 11
Brc1ccc2ncnc(Nc3ccc(N4CCCC4)cc3)c2c1 [KKL-1293] | 0
CCOC(=O)c1cc(-c2csc(Nc3c(C)cc(C)cc3C)n2)on1 [KKL-1760] | 0
COc1cc(C(=O)N2CCc3c([nH]c4ccccc34)C2c2ccccn2)c2ccccc2n1 (stereo not drawn) [KKL-1188] | 0
CC(=O)OC1CC2C(COC(=O)CC(C)C)=COC(OC(=O)CC(C)C)C2C1(O)CCl (stereo not drawn) [KKL-1612] | 0
CCOC(=O)C1=Nc2ccccc2C1=[N+]=[N-] [KKL-0987] | 0
COc1ccc(CN2CCN(CC(O)Cn3c4ccccc4c4ccccc43)CC2)cc1 (stereo not drawn) [KKL-1520] | 0
CN(C)CC(C)(C)CNc1cc(-c2ccccc2)nc2cc(-c3cccc(F)c3)nn12 [KKL-0523] | 0
CC1CCCN(CCC(=O)c2ccc(Br)cc2)C1 (stereo not drawn) [KKL-0974] | 7
COc1ccc(CCN=C(S)N2CCN(C/C=C/c3ccccc3)CC2)cc1OC [KKL-1528] | 2
CC(C)C(=O)N1CCN(c2ccccc2NC(=O)c2ccc([N+](=O)[O-])o2)CC1 [KKL-1300] | 0
O=C1c2cccc3c([N+](=O)[O-])ccc(c23)C(=O)N1Cc1cccnc1 [KKL-0365] | 0
O=[N+]([O-])c1cnc(-c2nc3ccccc3[nH]2)s1 [KKL-1884] | 0
CC1CC(C)CN(C(=O)c2ccc(CN=c3c(N4CCCC4)c(O)c3=O)cc2)C1 (stereo not drawn) [KKL-1229] | 6
COc1ccc2cc(-c3[nH]ncc3CNCc3ccc(C(F)(F)F)cc3)ccc2c1 [KKL-1118] | 0
COC(=O)C(C)Oc1ccc2c(=O)c(Oc3ccccc3Br)coc2c1 (stereo not drawn) [KKL-1421] | 0
CCC(NC(=O)c1cnc(C(C)(C)C)nc1)c1ccc(F)cc1 (stereo not drawn) [KKL-0932] | 5
CCOc1ccccc1CNc1ccc(C2c3ccsc3CCN2C(C)=O)cc1 (stereo not drawn) [KKL-1040] | 0
COc1ccc(C)cc1NC(=O)c1ccc(Cc2ccc(C)cc2)o1 [KKL-1194] | 7
Cc1cc(OCC(=O)NCc2ccccc2)c2cc(Br)ccc2n1 [KKL-1832] | 6
COc1ccccc1-c1coc2cc(OCC(=O)OCc3ccccc3)ccc2c1=O [KKL-0913] | 0
COC(=O)C(CCSC)NC(=O)c1cc(COc2ccc(F)cc2Cl)on1 (stereo not drawn) [KKL-0497] | 9
Clc1ccc(CNCc2c[nH]nc2-c2ccc(-c3ccccc3)cc2)s1 [KKL-1155] | 0
Cc1c(C(=O)NC(=S)Nc2ccc(Oc3ccc(Cl)cc3)cc2)cccc1[N+](=O)[O-] [KKL-0735] | 17
O=C(NNC(=O)c1ccc([N+](=O)[O-])o1)c1ccc2ccccc2c1 [KKL-1882] | 0

3 compounds already listed, sorted by length of the SMILES, falling:
Compound | % activation [%]
CC(C)C(=O)N1CCN(c2ccccc2NC(=O)c2ccc([N+](=O)[O-])o2)CC1 [KKL-1300] | 0
O=C1c2cccc3c([N+](=O)[O-])ccc(c23)C(=O)N1Cc1cccnc1 [KKL-0365] | 0
O=[N+]([O-])c1cnc(-c2nc3ccccc3[nH]2)s1 [KKL-1884] | 0

Additional compounds follow:

Compound | % activation [%]
C#CCOc1cccc(CN2CCn3cccc3C2CC)c1 (stereo not drawn) [KKL-0516] | 0
N=c1c2c(-c3ccccc3)c(-c3ccccc3)n(Cc3ccco3)c2ncn1Cc1ccccc1 [KKL-0887] | 0
COCc1nnc(NC(=O)c2cc(-c3ccc(F)cc3)n(C)n2)s1 [KKL-0683] | 0
COc1ccccc1C(=O)NNC(=S)NC(=O)c1ccc(-c2ccccc2)cc1 [KKL-0561] | 11
CCc1ccc(Nc2nnc(SCc3cc(C)on3)s2)cc1 [KKL-1791] | 0
O=Cc1ccc(C(=O)N2CCCC(C(=O)c3ccc(Oc4ccccc4)cc3)C2)cc1 (stereo not drawn) [KKL-1187] | 2
O=C(Nc1nc(-c2ccccc2F)cs1)c1cnc(N2CCCCC2)nc1 [KKL-0331] | 2
COc1cc(OC)c(-c2nn3c(C4CCCCC4)nnc3s2)cc1OC [KKL-1017] | 1
CCOC(=O)COc1ccc2c(=O)c(-c3ccccc3)coc2c1 [KKL-1516] | 4
CCOC(=O)Cn1cc(C#N)c2cccc(CC)c21 [KKL-1580] | 3
O=C(Nc1ccc(C(F)(F)F)cc1)Nc1cccc(F)c1 [KKL-1574] | 0
Cc1ccc(C2=Nc3ccccc3SC(c3cccc([N+](=O)[O-])c3)C2)cc1 (stereo not drawn) [KKL-1203] | 6
CCC(C)Oc1ccc(C(=O)NC(=S)Nc2ccc(NC(=O)c3ccco3)cc2)cc1 (stereo not drawn) [KKL-1413] | 4
CCc1ccccc1N1C(=O)c2cccc3c([N+](=O)[O-])ccc(c23)C1=O [KKL-1363] | 0
Fc1cccc(Oc2cc(C3CCCNC3)nc(-c3ccncc3)n2)c1 (stereo not drawn) [KKL-1670] | 3
COc1ccc(-c2ncc(CN3CCCC(C(=O)c4cccc(OC(C)C)c4)C3)cn2)cc1 (stereo not drawn) [KKL-0633] | 0
NC(=O)c1ccc(NC(=O)COC(=O)c2c3c(nc4ccccc24)/C(=C\c2cccs2)CCC3)cc1 [KKL-0818] | 0
Cc1ccc(C(=O)NC(=S)Nc2ccc(S(=O)(=O)NC(C)C)cc2)cc1Br [KKL-0593] | 0
Cc1cc(Cl)ccc1NC(=O)CCc1ccc(S(=O)(=O)NCC(C)C)cc1 [KKL-1451] | 2
Cc1ccc(CN(CCCn2ccnc2)Cc2cccc(Cl)c2Cl)o1 [KKL-1195] | 17
CCOC(=O)c1ccc(NC(=O)C2C(=O)N(C)C3(C)CC2c2ccccc2O3)cc1 (stereo not drawn) [KKL-1246] | 0
CCCOC(=O)c1ccc(NC(=S)NC(=O)c2ccc(Cl)cc2)cc1 [KKL-0761] | 3
CC(NCC(O)COc1ccccc1C(C)(C)C)c1ccccc1 (stereo not drawn) [KKL-0780] | 17
Cc1ccc2[nH]c3c(c2c1)CCCC3NCCCOc1ccc(F)cc1 (stereo not drawn) [KKL-0771] | 84
Cc1cc(OCC(=O)NC2C3CC4CC(C3)CC2C4)cc(C)c1Br (stereo not drawn) [KKL-1295] | 0
O=C(Oc1cccc2cccnc12)c1cc2ccccc2oc1=O [KKL-0571] | 8
S=C(NCCCN1CCN(c2ccc(Cl)cc2)CC1)Nc1cccc(Cl)c1 [KKL-0444] | 10
